PubChem BioAssay AID248 (DTP/NCI, 2004)
The list shows only some results of the screen, not a fair sample: it gathers tests that were run many times, whatever their T/C, doses with no T/C, and many T/C values between a quarter and a half above the control. Further doses and runs are listed elsewhere. T/C is the treated group as % of the vehicle group. Some doses have a count of surviving animals in place of a T/C: the source files T/C as zero there, which appears to mark a toxic dose or a test without result, not a measured value. Some doses without a T/C left all or most animals alive at the check, yet need not have been tolerated: survival well below the control is almost never listed, so the zero probably covers shortened survival too. Counts of survivors are from the toxicity check (mostly the fifth day) where no day follows; animals may have died later. Schedules are NCI's codes, read here as Q, the interval in days (D) or hours (H), X, the number of doses. Some schedules carry Z or #; the key to these is not given. Some entries were tested several times; the values are given in rising order. Where survival is the endpoint, the PubChem record calls one and a half times the control and up active, and a quarter to a half above the control has no call in these data; cut-offs in other NCI protocols can differ. Some T/C values carry the count of animals alive at the toxicity check (mostly the fifth day); without a count, all were alive then.

Test system: L1210 leukemia ip in BDF1 mice, survival T/C
Test: NCI In Vivo Anticancer Drug Screen. Data for tumor model L1210 Leukemia (intraperitoneal) in B6D2F1 (BDF1) mice
Conditions: T/C endpoint: mean survival time, higher T/C = longer survival
[1] = dose: 400.0 mg/kg/injection, schedule: Q01DX001 (ip), vehicle: Klucel (hydroxypropylcellulose) (HPC)
[2] = dose: 50.0 mg/kg/injection, schedule: Q01DX009 (ip), vehicle: saline with Tween-80
[3] = dose: 100.0 mg/kg/injection, schedule: Q04DX002 (ip), vehicle: saline with Tween-80
[4] = dose: 100.0 mg/kg/injection, schedule: Q04DX003 (ip), vehicle: saline with Tween-80
[5] = dose: 200.0 mg/kg/injection, schedule: Q04DX002 (ip), vehicle: saline with Tween-80
[6] = dose: 200.0 mg/kg/injection, schedule: Q04DX003 (ip), vehicle: saline with Tween-80
[7] = dose: 400.0 mg/kg/injection, schedule: Q04DX002 (ip), vehicle: saline with Tween-80
[8] = dose: 400.0 mg/kg/injection, schedule: Q04DX003 (ip), vehicle: saline with Tween-80
[9] = dose: 150.0 mg/kg/injection, schedule: Q01DX001 (ip), vehicle: saline
[10] = dose: 300.0 mg/kg/injection, schedule: Q01DX001 (ip), vehicle: saline
[11] = dose: 100.0 mg/kg/injection, schedule: Q04DX002 (ip), vehicle: Klucel (hydroxypropylcellulose) (HPC)
[12] = dose: 200.0 mg/kg/injection, schedule: Q04DX002 (ip), vehicle: Klucel (hydroxypropylcellulose) (HPC)
[13] = dose: 400.0 mg/kg/injection, schedule: Q01DX009 (ip), vehicle: Klucel (hydroxypropylcellulose) (HPC)

In the case of `COc1ccccc1N=Nc1c(O)n(-c2ccccc2C)c(=S)n(-c2ccccc2)c1=O`, the survivor count [1] is reported as 2 of 6.
`CCCCCCCOC(CN)C(Cl)(Cl)Cl` (stereo not drawn) was tested, and the survivor count [2] was 0 of 3 and 0 of 6, the survivor count [3] was 1 of 3, 3 of 6, 4 of 6 and the survivor count [4] was 1 of 6. For the same compound, the survivor count [5] was 0 of 3 and 0 of 6, the survivor count [6] was 0 of 6 and the survivor count [7] was 0 of 3 and 0 of 6. For the same compound, the survivor count [8] was 1 of 6.
For `CNc1cc(N)ncn1`, the survivor count (dose: 225.0 mg/kg/injection, schedule: Q01DX Z (ip), vehicle: saline) was 3 of 6.
For `CC(=O)NN=C1CCC(=NNC(C)=O)CC1`, the survivor count (dose: 200.0 mg/kg/injection, schedule: Q04DX003 (ip), vehicle: Klucel (hydroxypropylcellulose) (HPC)) was 6 of 6 and the survivor count (dose: 400.0 mg/kg/injection, schedule: Q04DX003 (ip), vehicle: Klucel (hydroxypropylcellulose) (HPC)) was 1 of 6.
For `N=C(N)SCCCN`, the survivor count (dose: 200.0 mg/kg/injection, schedule: Q01DX009 (ip), vehicle: saline) was 3 of 6, the survivor count (dose: 400.0 mg/kg/injection, schedule: Q01DX009 (ip), vehicle: saline) was 0 of 6 and the survivor count (dose: 400.0 mg/kg/injection, schedule: Q04DX003 (ip), vehicle: saline) was 2 of 6.
In the case of `O=C(NCCCCNC(=O)Nc1ccc(C2=NCCN2)cc1)Nc1ccc(C2=NCCN2)cc1`, the T/C (dose: 62.0 mg/kg/injection, schedule: Q01DX Z (ip), vehicle: carboxymethylcellulose (CMC)) is reported as 129 % of control, the survivor count (dose: 250.0 mg/kg/injection, schedule: Q01DX Z (ip), vehicle: carboxymethylcellulose (CMC)) is reported as 4 of 6 and the survivor count (dose: 500.0 mg/kg/injection, schedule: Q01DX Z (ip), vehicle: carboxymethylcellulose (CMC)) is reported as 1 of 6.
With `CCN(CC)CCCNC(c1ccc(Cl)cc1)C(Cl)(Cl)Cl` (stereo not drawn) the survivor count [9] was 2 of 6 and the survivor count [10] was 0 of 6.
For `CC1(C)CCC(N)CC1`, the survivor count [10] was 0 of 6.
For `NC(=Nc1ccccc1)Nc1ccccc1`, the survivor count (dose: 50.0 mg/kg/injection, schedule: Q04DX002 (ip), vehicle: Klucel (hydroxypropylcellulose) (HPC)) was 0 of 3, the survivor count (dose: 55.0 mg/kg/injection, schedule: Q01DX009 (ip), vehicle: saline) was 0 of 3 and the survivor count (dose: 80.0 mg/kg/injection, schedule: Q01DX009 (ip), vehicle: saline) was 0 of 3. The survivor count [11] was 0 of 3 and the survivor count [12] was 0 of 3.
In the case of `CN(C)C(c1ccccc1)C(CBr)C(=O)c1ccc(Br)cc1` (stereo not drawn), the survivor count (dose: 50.0 mg/kg/injection, schedule: Q01DX009 (ip), vehicle: saline) is reported as 0 of 6, the survivor count [4] is reported as 5 of 6 and the survivor count [6] is reported as 0 of 6. The survivor count [8] was 0 of 6.
With `CC(C)(N)CNc1ccccc1` the survivor count [6] was 0 of 6 and the survivor count [8] was 0 of 6.
`CCCCCCCCOP(=O)(N1CC1)N1CC1` was tested, and the T/C (dose: 4.67 mg/kg/injection, schedule: Q01DX015 (ip), vehicle: saline) was 127 % of control, the T/C (dose: 7.0 mg/kg/injection, schedule: Q01DX015 (ip), vehicle: saline) was 140 % of control and the T/C (dose: 8.0 mg/kg/injection, schedule: Q01DX015 (ip), vehicle: saline) was 132 % of control. The T/C (dose: 12.0 mg/kg/injection, schedule: Q01DX001 (ip), vehicle: saline) was 128 % of control, the T/C (dose: 18.0 mg/kg/injection, schedule: Q01DX001 (ip), vehicle: saline) was 130 % of control and the T/C (dose: 28.0 mg/kg/injection, schedule: Q01DX001 (ip), vehicle: saline) was 139 % of control. The T/C (dose: 30.0 mg/kg/injection, schedule: Q01DX015 (ip), vehicle: saline) was 130 % of control, the T/C (dose: 44.4 mg/kg/injection, schedule: Q01DX001 (ip), vehicle: saline) was 138 % of control and the T/C (dose: 50.0 mg/kg/injection, schedule: Q01DX001 (ip), vehicle: saline) was 140 % of control. The T/C (dose: 50.0 mg/kg/injection, schedule: Q01DX015 (ip), vehicle: saline) was 135 % of control [5 of 6 alive], the survivor count (dose: 75.0 mg/kg/injection, schedule: Q01DX015 (ip), vehicle: saline) was 3 of 6 and the T/C (dose: 100.0 mg/kg/injection, schedule: Q01DX001 (ip), vehicle: saline) was 193, 197, 233, 271 % of control [5 of 6 alive]. For the same compound, the survivor count (dose: 112.0 mg/kg/injection, schedule: Q01DX015 (ip), vehicle: saline) was 0 of 6, the survivor count [9] was 3 of 6 and the survivor count (dose: 200.0 mg/kg/injection, schedule: Q01DX001 (ip), vehicle: saline) was 0 of 4. For the same compound, the survivor count (dose: 400.0 mg/kg/injection, schedule: Q01DX001 (ip), vehicle: saline) was 0 of 4.
In the case of `N#Cc1nnn(-c2ccccc2)n1`, the survivor count (dose: 100.0 mg/kg/injection, schedule: Q01DX009 (ip), vehicle: acetone) is reported as 0 of 6, the survivor count (dose: 200.0 mg/kg/injection, schedule: Q04DX003 (ip), vehicle: acetone) is reported as 0 of 6 and the survivor count (dose: 400.0 mg/kg/injection, schedule: Q01DX001 (ip), vehicle: acetone) is reported as 0 of 6.
With `Cc1cc(C(C)(C)C)c(OC(=S)N(C)C)c(C(C)(C)C)c1` the survivor count [4] was 6 of 6, the survivor count [6] was 6 of 6 and the survivor count [8] was 6 of 6.
In the case of `O=C1C(O)=C(c2ccc(O)cc2)C(=O)C(O)=C1c1ccc(O)cc1`, the survivor count [11] is reported as 3 of 3, the survivor count [12] is reported as 1 of 3 and the survivor count (dose: 400.0 mg/kg/injection, schedule: Q04DX002 (ip), vehicle: Klucel (hydroxypropylcellulose) (HPC)) is reported as 0 of 3.
In the case of `CN=C(c1ccc(NC(=O)c2ccc(C(=O)Nc3ccc(C(=NC)N(C)Cc4ccccc4)cc3)cc2)cc1)N(C)Cc1ccccc1`, the survivor count (dose: 15.0 mg/kg/injection, schedule: Q01DX Z (ip), vehicle: saline) is reported as 6 of 6.
For `O=C(COc1ccc(Cl)c(Cl)c1)Nc1ccc[n+](Cc2cccc(S(=O)(=O)F)c2)c1`, the survivor count [1] was 3 of 6.
In the case of `CCC1(c2ccccc2)C(=O)N(CBr)C(=O)N(CBr)C1=O`, the survivor count [2] is reported as 2 of 3, the survivor count (dose: 200.0 mg/kg/injection, schedule: Q01DX009 (ip), vehicle: saline with Tween-80) is reported as 1 of 3 and the survivor count [7] is reported as 3 of 3.
In the case of `CCc1ccc(NC(=O)c2c(Br)c(Br)c(Br)c(Br)c2C(=O)O)cc1`, the survivor count (dose: 200.0 mg/kg/injection, schedule: Q01DX009 (ip), vehicle: Klucel (hydroxypropylcellulose) (HPC)) is reported as 2 of 6 and the survivor count [13] is reported as 0 of 6.
`CC(=O)Nc1cc2cc(Br)ccc2oc1=O` was tested, and the survivor count [13] was 6 of 6.
In the case of `O=C(O)c1ccc(N=Cc2ccc(N(CCCl)CCCl)cc2)cc1O`, the survivor count (dose: 400.0 mg/kg/injection, schedule: Q01DX001 (ip), vehicle: carboxymethylcellulose (CMC)) is reported as 2 of 4.
In the case of `CCc1c(N)nc(N)nc1Cl`, the survivor count (dose: 50.0 mg/kg/injection, schedule: Q01DX Z (ip), vehicle: methylcellulose (MC)) is reported as 6 of 6, the survivor count (dose: 100.0 mg/kg/injection, schedule: Q01DX Z (ip), vehicle: methylcellulose (MC)) is reported as 6 of 6 and the survivor count (dose: 200.0 mg/kg/injection, schedule: Q01DX Z (ip), vehicle: methylcellulose (MC)) is reported as 6 of 6.
In the case of `O=C1CCCC[CH]1[Hg][Cl]` (stereo not drawn), the survivor count (dose: 10.0 mg/kg/injection, schedule: Q01DX001 (ip), vehicle: saline) is reported as 0 of 6, the survivor count (dose: 20.0 mg/kg/injection, schedule: Q01DX001 (ip), vehicle: saline) is reported as 0 of 6 and the survivor count (dose: 40.0 mg/kg/injection, schedule: Q01DX001 (ip), vehicle: saline) is reported as 0 of 6. The survivor count (dose: 75.0 mg/kg/injection, schedule: Q01DX001 (ip), vehicle: saline) was 0 of 6, the survivor count [9] was 0 of 6 and the survivor count [10] was 0 of 6.
`ClCCCC#Cc1ccccc1` was tested, and the survivor count [1] was 3 of 6.
In the case of `Cc1nnc2nc3c(nn12)c1ccccc1n3C`, the survivor count [3] is reported as 0 of 3, the survivor count [5] is reported as 0 of 3 and the survivor count [7] is reported as 1 of 3.
